Measured values taken from PubChem BioAssay AID590 (National Center for Advancing Translational Sciences (NCATS), 2007).
Values joined by “and” are separate entries in the source; they are usually repeats but may differ in a detail not shown here. Equal values may be shown once. Screen size: about 59,000 compounds; about 6,500 (11%) were called active. The shares of active, inactive and inconclusive entries below differ from those in the screen. Cut-off read from the data, not from the text of the source: active = max dye-equivalent concentration above about 10 nM; inconclusive = mostly about 1.1 nM to 9.6 nM; inactive = weaker than that.

Test: qHTS Assay for Spectroscopic Profiling in A350 Spectral Region
Details: Compound autofluorescence, 340/450 nm, Alexa 350 dye-equivalents; active compounds read high

Row | SMILES | max dye-equivalent concentration
1 | COCCn1c(=O)c(C)nc2cnc(Nc3cccc(OC)c3)nc21 | inactive
2 | Cc1cc2nc(NC3=NCN(Cc4ccc5c(c4)OCO5)CN3)nc(C)c2cc1C | inactive
3 | O=C(NCc1ccccc1)c1cnsn1 | inconclusive: 1.7e-09 M
4 | COc1ccc(-n2c(=O)c(C)nc3cnc(OC)nc32)cc1 | inconclusive: 2.3e-09 M
5 | O=C(c1ccco1)N1CCC2(CCCN(C(c3ccccc3)c3ccccc3)C2)CC1 | inactive
6 | O=C(NCc1cccnc1)c1ccc(=O)oc1 | inconclusive: 8e-09 M
7 | COC(=O)c1ccc(OCC(=O)c2ccc(O)cc2O)cc1 | inconclusive: 1.1e-09 M
8 | COc1ccc(-c2ccc(=O)n(Cc3cc(=O)n4ccccc4n3)n2)cc1 | active: 1.1e-08 M
9 | CC(C)Cc1ccc([C@H](C)C(=O)O)cc1 | inconclusive: 4.8e-09 M and inconclusive: 4.5e-09 M
10 | CCOc1ccc2nc(NC(=O)c3ccc(S(=O)(=O)N4CCOCC4)cc3)sc2c1 | inconclusive: 5.8e-09 M
11 | COC(=O)[C@H](CCSC)NC(=O)Nc1ccc(C(C)C)cc1 | inconclusive: 1.8e-09 M
12 | CCOC(=O)C(C)Oc1ccc(C2NC(=O)NC(C)=C2C(=O)Nc2ccccc2C)cc1 (stereo unspecified) | inconclusive: 1.3e-09 M
13 | CCC(C)[C@@H](NC(=O)OC(C)(C)C)c1nnc(S(=O)(=O)Cc2cccc(C)c2)o1 (stereo partly specified) | inactive
14 | CNc1ncncc1-c1c(C)noc1C | inactive
15 | Cc1nc(-c2coc3cc(OCC(=O)O)ccc3c2=O)cs1 | inconclusive: 3.8e-09 M
16 | Cc1ccc(-n2c3c(cc(C(=O)Nc4cccc(C)n4)c2=O)C(=O)CCC3)cc1 | inconclusive: 1.2e-09 M
17 | Cc1ccc(C)c(NC(=O)CNS(=O)(=O)c2ccccc2)c1 | inconclusive: 1.3e-09 M
18 | Cc1nn(C)c(C)c1NC(=O)CSc1nc(-c2ccccc2F)nc2c1cnn2-c1ccccc1 | inconclusive: 6.8e-09 M
19 | CN1CCN(CCCN2c3ccccc3Sc3ccc(S(=O)(=O)N(C)C)cc32)CC1 | inconclusive: 6.1e-09 M
20 | CC1CN(c2oc(-c3ccccc3Cl)nc2C#N)CC(C)O1 (stereo unspecified) | inconclusive: 8.2e-09 M
21 | CCOC(=O)/C=c1\s/c(=C\c2ccccc2OC)c(=O)n1CC(=O)N1CCOCC1 | inconclusive: 5.4e-09 M
22 | Cc1nn(-c2ccccc2)c(Cl)c1C1C(C#N)=C(N)OC2=C1C(=O)CCC2 (stereo unspecified) | inconclusive: 1.1e-09 M
23 | COCCn1c(NCc2ccccc2)nc2c1c(=O)[nH]c(=O)n2C | inactive

Row | SMILES | max dye-equivalent concentration
24 | CCCc1nnc(NC(=O)CCC(=O)N2CCCCCC2)s1 | inconclusive: 1.6e-09 M
25 | COc1ccc2nc(NC(=O)c3cccc(OCc4c(C)noc4C)c3)sc2c1 | active: 1.2e-06 M
26 | CCCNC(=O)NC(C(=O)OC)C12CC3CC(CC(C3)C1)C2 (stereo unspecified) | inconclusive: 1.1e-09 M
27 | CCc1c(C)sc(NC(=O)CC#N)c1C#N | inconclusive: 6.8e-09 M
28 | COc1ccc(-c2nc(NC(=O)CSc3nnc(C)s3)ns2)cc1 | inconclusive: 8.8e-09 M
29 | O=C(NCc1cccs1)C1CCCN1S(=O)(=O)c1ccccc1F (stereo unspecified) | inconclusive: 2.3e-09 M
30 | CCOC(=O)c1c(C)c(C(=O)NCc2ccccn2)c(C)n1CC | inactive
31 | Cc1nn2c(N3CCCC3)cc(C(C)C)nc2c1-c1ccccc1 | active: 3.2e-07 M
32 | CCOC(=O)C1=C(C)NC(=O)NC1c1cc(C)sc1C (stereo unspecified) | inconclusive: 1.4e-09 M
33 | C1=C(CCNC2=NCCCCC2)CCCC1 | inconclusive: 3.5e-09 M
34 | CN1c2cccc3cccc(c23)N(C)C1(C)C | active: 1.8e-07 M
35 | O=C(c1cc2ccccc2c(=O)o1)N1CCc2ccccc2C1 | inactive
36 | O=C(Cn1cnc2c(oc3ccccc32)c1=O)c1ccccc1 | inconclusive: 2.7e-09 M
37 | O=C(Nc1nnc(-c2ccccc2Cl)o1)c1ccco1 | inactive
38 | CCOc1cc(C(=S)N2CCN(C)CC2)ccc1OCC(=O)N1CCOCC1 | inconclusive: 1.9e-09 M
39 | COc1ccc(C(=O)N2CCC3(CCN(Cc4cc(C(F)(F)F)cc(C(F)(F)F)c4)CC3)CC2)cc1 | inactive
40 | Cc1ccc(NC(=O)N2C(=O)C3(OCCO3)c3ccccc32)cc1 | inactive
41 | Cc1ccccc1-c1cc(N(C)Cc2ccco2)ncn1 | inactive
42 | Cc1ccc(S(=O)(=O)N2C(=O)CCC2C(=O)Nc2ccc3c(c2)OCCO3)cc1 (stereo unspecified) | inactive
43 | CNc1nc2c(c(=O)[nH]c(=O)n2C)n1CCOC | inactive
44 | C/C(=N\[N+](C)(C)C)c1ccc(C)c(C)c1 | inactive
45 | CC(=O)c1cc2c(cc1NC(=O)CSc1nc3ccccc3o1)OCO2 | active: 7.7e-07 M
46 | O=C(O)[C@H](Cc1ccccc1)N1C(=O)c2ccncc2C1=O | inconclusive: 4.1e-09 M

Row | SMILES | max dye-equivalent concentration
47 | CCOC(=O)N1CCC(NC(=O)Cn2c3ccccc3c3cn[nH]c(=O)c32)CC1 | inactive
48 | COc1ccc(C2/C(=C(/O)c3ccccc3)C(=O)C(=O)N2CC(C)O)c(OC)c1 (stereo unspecified) | inconclusive: 1.5e-09 M
49 | CCOc1ccc(OCC)c(NC(=O)CN2CCN(c3ccc(C)cc3C)CC2)c1 | inconclusive: 1.5e-09 M
50 | CC(C)CCNC(=O)CN(C(=O)Cn1nnc(-c2ccc(F)cc2)n1)C1CCCC1 | inactive
51 | CCCOc1ccc(NC(=O)C2CC(=O)N3CCCN=C3S2)cc1 (stereo unspecified) | active: 2.3e-08 M
52 | COc1ccc(N(C2CSC2)S(=O)(=O)c2ccccc2)cc1 | inconclusive: 1.7e-09 M
53 | CCOC(=O)CNC(=O)CSc1nnc(COc2ccc(Cl)cc2)n1CC | inactive
54 | C=CCO[C@@H](Cn1ccnc1)c1ccc(Cl)cc1Cl | inconclusive: 1.2e-09 M
55 | CCN1CCCC1CN(Cc1cc2cc(C)cc(C)c2[nH]c1=O)C(=O)Nc1ccccc1OC (stereo unspecified) | inconclusive: 5.9e-09 M
56 | COc1cccc(Cn2c(=O)c(C)nc3cnc(Oc4ccccc4)nc32)c1 | inactive
57 | CC[C@H](C)C(=O)O[C@H]1C[C@@H](C)C=C2C=C[C@H](C)[C@H](CC[C@@H]3C[C@@H](O)CC(=O)O3)[C@H]21 | inconclusive: 2.2e-09 M
58 | N#CC1=C(N)Oc2c(oc(CO)cc2=O)C12C(=O)Nc1ccc(Cl)cc12 (stereo unspecified) | inactive
59 | CCC(=O)c1ccc(OCC(O)CN2CCOCC2)cc1 (stereo unspecified) | inconclusive: 5.5e-09 M
60 | CCCCc1nc(NCC2CCCO2)c(C#N)c2c1COC(C)(C)C2 (stereo unspecified) | active: 7.7e-08 M
61 | CN(C)C(=O)c1ccc(-c2nc(Nc3ccccc3)c3ccccc3n2)cc1 | inconclusive: 1.8e-09 M
62 | CC(C)(C)Nc1nc(SCc2ccccc2)nc(N2CCOCC2)n1 | inactive
63 | O=C(CCCn1c(=S)[nH]c2ccccc2c1=O)NC1CCCC1 | inconclusive: 2e-09 M
64 | COCCn1c(=NC(=O)CSCC(=O)Nc2cc(C)on2)sc2cc(C(=O)OC)ccc21 | inconclusive: 3.1e-09 M
65 | Cc1noc(/C=C/N(C)C)c1S(=O)(=O)N1CCCC(C(=O)NCc2ccccc2Cl)C1 (stereo unspecified) | inactive
66 | CC(=O)C(Sc1nc(-c2ccco2)nc2c1c(=O)n(C)c(=O)n2C)C(=O)N(C)C (stereo unspecified) | inconclusive: 1.3e-09 M
67 | COc1ccc(CN(CCCN2CCOCC2)C(=O)Nc2ccccc2)cc1OC | inconclusive: 2e-09 M
68 | CCOc1ccccc1C(=O)NC(C(=O)Nc1ccccc1N1CCOCC1)C(C)C (stereo unspecified) | inconclusive: 1.3e-09 M
69 | c1ccc2nc3c(nc2c1)CCc1nonc1-3 | inconclusive: 1.1e-09 M

Row | SMILES | max dye-equivalent concentration
70 | Clc1ccc(-c2nnc(-c3cccc4ccccc34)o2)cc1Cl | inconclusive: 9.5e-09 M
71 | COc1ccccc1CN1CCCC2(CCN(S(=O)(=O)c3ccccc3)CC2)C1 | inactive
72 | CCOC(=O)c1c(NC(=O)CSc2nnc(CN3CCOCC3)n2C)sc2c1CCCC2 | inconclusive: 1.4e-09 M
73 | CN1CCN(c2ncnc3c2[nH]c2ccc(F)cc23)CC1 | active: 7e-08 M
74 | CS(=O)(=O)Nc1cccc(-c2nc(N3CCNCC3)c3ccccc3n2)c1 | inconclusive: 1.6e-09 M
75 | COCCCn1c(SCC(=O)N2CCCC(C)C2)nnc1-c1ccco1 (stereo unspecified) | inconclusive: 1.3e-09 M
76 | O=C(O)CCc1nc(-c2ccccc2Cl)no1 | active: 1e-08 M
77 | COc1ccc2cc(C(c3nnnn3CCc3ccccc3)N3CCCC(C)C3)c(=O)[nH]c2c1 (stereo unspecified) | inconclusive: 8.2e-09 M
78 | COCC(=O)Nc1sc2c(c1C(=O)OC)CCCC2 | inactive
79 | COc1ccc(C2CC(=O)C3=C(C2)Nc2ncnn2C3c2ccccc2)cc1 (stereo unspecified) | active: 8e-08 M
80 | O=C(Nc1ccc2c(c1)OCCO2)C1CCN(S(=O)(=O)c2cccc3nsnc23)CC1 | inconclusive: 1.1e-09 M
81 | COC(=O)c1sc(NC(=O)c2ccco2)nc1C | inactive
82 | O=C(CNCCO)NC12CC3CC(CC(C3)C1)C2 | inconclusive: 1.9e-09 M
83 | CC(C)COP(=O)(c1ccc(N(C)C)cc1)C(O)c1ccccn1 (stereo unspecified) | inconclusive: 1.1e-09 M
84 | CC(C)OCCCn1c(=N)c(C(N)=S)cc2c(=O)n3ccccc3nc21 | active: 1.1e-06 M
85 | COc1cc2nc(N3CCN(C(=O)[C@@H]4CCCO4)CC3)nc(N)c2cc1OC | active: 8.3e-07 M
86 | Cc1sc2nc(-c3ccco3)oc(=O)c2c1C | active: 1.8e-07 M
87 | COc1ccc(NC(=O)c2ccco2)c(OC)c1 | inactive
88 | CCc1ccccc1N(CC(=O)NCc1ccco1)C(=O)c1snc(C(N)=O)c1N | active: 2.5e-07 M
89 | CC(=O)c1c(N2CCCCC2)nc(=O)n(-c2ccccc2)c1C | inconclusive: 1.1e-09 M
90 | c1ccc(Cc2nnc3sc(-c4ccc5c(c4)OCO5)nn23)cc1 | inconclusive: 3.8e-09 M
91 | COC(=O)CCC(=O)Nc1cccc(Br)c1 | inconclusive: 1.4e-09 M

Part of the list above, with tabs:
Row	SMILES	max dye-equivalent concentration
40	Cc1ccc(NC(=O)N2C(=O)C3(OCCO3)c3ccccc32)cc1	inactive
41	Cc1ccccc1-c1cc(N(C)Cc2ccco2)ncn1	inactive
42	Cc1ccc(S(=O)(=O)N2C(=O)CCC2C(=O)Nc2ccc3c(c2)OCCO3)cc1 (stereo unspecified)	inactive
43	CNc1nc2c(c(=O)[nH]c(=O)n2C)n1CCOC	inactive
44	C/C(=N\[N+](C)(C)C)c1ccc(C)c(C)c1	inactive
45	CC(=O)c1cc2c(cc1NC(=O)CSc1nc3ccccc3o1)OCO2	active: 7.7e-07 M
46	O=C(O)[C@H](Cc1ccccc1)N1C(=O)c2ccncc2C1=O	inconclusive: 4.1e-09 M
47	CCOC(=O)N1CCC(NC(=O)Cn2c3ccccc3c3cn[nH]c(=O)c32)CC1	inactive
48	COc1ccc(C2/C(=C(/O)c3ccccc3)C(=O)C(=O)N2CC(C)O)c(OC)c1 (stereo unspecified)	inconclusive: 1.5e-09 M
49	CCOc1ccc(OCC)c(NC(=O)CN2CCN(c3ccc(C)cc3C)CC2)c1	inconclusive: 1.5e-09 M
50	CC(C)CCNC(=O)CN(C(=O)Cn1nnc(-c2ccc(F)cc2)n1)C1CCCC1	inactive
51	CCCOc1ccc(NC(=O)C2CC(=O)N3CCCN=C3S2)cc1 (stereo unspecified)	active: 2.3e-08 M
52	COc1ccc(N(C2CSC2)S(=O)(=O)c2ccccc2)cc1	inconclusive: 1.7e-09 M
53	CCOC(=O)CNC(=O)CSc1nnc(COc2ccc(Cl)cc2)n1CC	inactive
54	C=CCO[C@@H](Cn1ccnc1)c1ccc(Cl)cc1Cl	inconclusive: 1.2e-09 M
55	CCN1CCCC1CN(Cc1cc2cc(C)cc(C)c2[nH]c1=O)C(=O)Nc1ccccc1OC (stereo unspecified)	inconclusive: 5.9e-09 M
56	COc1cccc(Cn2c(=O)c(C)nc3cnc(Oc4ccccc4)nc32)c1	inactive
57	CC[C@H](C)C(=O)O[C@H]1C[C@@H](C)C=C2C=C[C@H](C)[C@H](CC[C@@H]3C[C@@H](O)CC(=O)O3)[C@H]21	inconclusive: 2.2e-09 M
58	N#CC1=C(N)Oc2c(oc(CO)cc2=O)C12C(=O)Nc1ccc(Cl)cc12 (stereo unspecified)	inactive
